Test results taken from publication PMC10163288.
This is one part of the list.

B1: il2ra_site2_3nfp_sap_20_mot_HHH_b1_03818_000000217_0001_1_20_H_._HHH_b1_03372_af2_0001_0000400021_0000001_0_0001 (protein)
chain: DVEELVELAEKARTDPEAAEKLFEEAEEAKKNGDPRLELLIYAVLALAINGVPPEELREFLEERK
B2: il2ra_site2_3nfp_sap_26_mot_HHH_b2_02437_000000052_0001_42_56_H_._a171aa182591c97700389b7a6f87ba9a_0001_af2_0001_0000200033_0000001_1_0001 (protein)
chain: SSSSTAERLLRIALESIKLALRDGDEELAERLIEDLKDAIEQNNDEEAREILEELEERVNSSSSS
B3: il2ra_site1_2b5i_normal_mot_HHH_b1_03013_000000055_0001_1_21_H_._HHH_b1_07693_0001_0000600024_0000001_0_af2pred_dldesign_0_af2pred (protein)
chain: SSSSSPRLKKIDEAEKLLKEIAEKKDEKAFDEVDDLLSKGIKSKDEKLLEEAIEYAKKILSSSSS
B4: il2ra_site1_3nfp_normal_mot_HHH_b2_02053_000000240_0001_1_20_H_._HHH_b1_03028_0001_0000300025_0000001_0_af2pred_0001_af2pred_1_swapped (protein)
chain: SSSSSDIFKEFQELIKEASKITDREELEEVLRQLKEIAEKANSPAAKLLVERLERKAKELSSSSS
B5: il2ra_site2_3nfp_normal_mot_HHH_b1_00660_af2_000000090_0001_40_57_H_._HHH_b2_01407_0001_0000100004_0000001_0_af2pred_0001_1_af2pred_swapped (protein)
chain: SSSSDEELRRLLEEAEELLERGNPEEARRVLRRAAHLAAELGDEEAFMELSKLLELVDRLLSSSS
B6: il2ra_site2_3nfp_sap_16_mot_HHH_b1_01724_000000063_0001_41_55_H_._HHH_b2_00688_0001_0001100041_0000001_0_0001 (protein)
chain: SSSSDKAERYVRAAIELAKLAAEDGDEEANEKALRLAELAAQDNRNPELEELVQELRELLESSSS
B7: il2ra_site1_3nfp_sap_16_mot_HHH_b2_06400_af2_000000233_0001_43_56_H_._HHH_b1_04025_af2_0001_0000100004_0000001_0_0001 (protein)
chain: PEEALRELLELARELGDEDVAEALEDVLERIEEGDPAAQWIALLLERLLRKLPPEEVIRHLRRAA
B8: il2ra_site2_3nfp_normal_mot_HHH_b1_02962_000000041_0001_43_56_H_._HHH_b2_03422_0001_0000200036_0000001_0 (protein)
chain: SSSSDEEVQREVEELLEEAKHIEDPEELRKVLQEAALLAYEARDAELFALVAEVLFKLLHHSSSS
B9: il2ra_site2_3nfp_sap_12_mot_968ffe68aa11d68c04d2634bf871f227_0001_1_af2_000000211_0001_1_14_H_._HHH_b2_04736_af2_0001_0000200012_0000001_1_0001 (protein)
chain: SSSSSDEEQERVEELLEEAKEIEDEEEVRKLLHEASRLAMEADDLELYELVAKFYKELHSSSSSS
B10: il2ra_site2_2erj_sap_23_mot_HHH_b2_01204_af2_000000019_0001_19_34_H_._HHH_b2_08335_0001_0001100036_0000001_0_0001 (protein)
chain: SSSSDELRRLYEILVKLLRLLFEGDEEEVERLLEELERLAEELNSDTAKAALETLRRKLRSSSSS
B11: il2ra_site1_1z92_sap_10_mot_HHH_b1_08504_af2_000000168_0001_42_54_H_._HHH_b2_05427_0001_0000300019_0000001_0_0001 (protein)
chain: SSSSNEKVLRRIVEMLVKAAGLSEEAEEILREELEELLREGVDAEEIIKILDELARRLAENSSSS
B12: il2ra_site1_3nfp_normal_mot_1cd86ef9f1587ae5d14d35bbbd8e7f1d_0001_1_000000087_0001_34_49_H_._HHH_b2_06542_af2_0001_0000200009_0000001_0_af2pred_0001_af2pred_swa … (protein)
chain: SSSSSEEAHRLSEEALEAAHRGDFEEAKKLAEEALKIAEEEGDERLAEYIEKLLEQIEKTGSSSS
B13: il2ra_site2_3nfp_sap_6_mot_HHH_b2_00323_af2_000000120_0001_23_39_H_._e55687cc0594206fc50f821845281bce_0001_af2_0001_0000100007_0000001_0_0001 (protein)
chain: GPEEKLEHAAKARGDPRFAIFALLADLVYELGDPEEAAELLREVIERLFNVPPEEAERLLREAAN
B14: il2ra_site2_2erj_sap_16_mot_HHH_b1_06777_000000153_0001_1_20_H_._HHH_b1_07248_0001_0001300025_0000001_0_0001 (protein)
chain: SSSSSEDEKEVEELLEEAKKLYEEGDLHEVFRLIVEALHIASRNNDDELQRLVMKVVEEISSSSS
B15: il2ra_site2_2erj_sap_27_mot_HHH_b1_04373_af2_000000118_0001_18_33_H_._8c87799e5e14fa72b7a696e58182a465_0001_0001_0000400035_0000001_0_0001_af2pred_0001_1_af2pre … (protein)
chain: SSSDEEELKERLEELIEKLAEELGLDEREILAIKVFIRAAIELGASEEELRLAVESAVKAASSSS
B16: il2ra_site2_3nfp_sap_14_mot_HHH_b2_08245_000000023_0001_41_55_H_._0a42daeb3aece44cdc522fd0f5bebdbb_0001_0001_0000500021_0000001_0_0001 (protein)
chain: SSSSDIEERLEELKREIEELIEEGDVHEAAQLAAELSELAAEYGDEEAFELVVEVMELAQSSSSS
B17: il2ra_site1_3nfp_sap_23_mot_1cd86ef9f1587ae5d14d35bbbd8e7f1d_0001_1_000000087_0001_34_49_H_._HHH_b2_03047_0001_0000500030_0000001_0_0001 (protein)
chain: SREDIEKVFRLLAKNPEEAVRLLRELVEETGDPELKRALELLEEALETNDPRLAKEASRILIRLA
B18: il2ra_site2_3nfp_sap_21_mot_HHH_b1_03230_af2_000000282_0001_23_39_H_._HHH_b2_05509_af2_0001_0001500013_0000001_0_0001 (protein)
chain: SSSSSEELEELLRELEELLKRGDEEEFRKLFAEIAHLAFRLNDPEIFYRVAELALEFVQRRSSSS
B19: il2ra_site1_1z92_sap_19_mot_HHH_b1_07036_000000095_0001_39_53_H_._HHH_b2_03837_0001_0000100006_0000001_0_0001 (protein)
chain: SRLERDVELILELAGTPERAVRFVERFAEQLLENGDPESAEELLEVAAKILGDPRLEELLEKIRK

These binders were tested against il2ra, P01589 (assay: yeast display titration).

Apparent Kd, inactive:
B1 no binding seen, B2 no binding seen, B3 no binding seen, B4 no binding seen, B5 no binding seen, B6 no binding seen, B7 no binding seen, B8 no binding seen, B9 no binding seen, B10 > 2440 nM, B11 no binding seen, B12 no binding seen, B13 no binding seen, B14 no binding seen, B15 no binding seen, B16 no binding seen, B17 no binding seen, B18 no binding seen, B19 no binding seen
